Data on 1 compound can be found in ChEMBL document CHEMBL4251607, “Antagonists of the adenosine A2A receptor based on a 2-arylbenzoxazole scaffold: Investigation of the C5- and C7-positions to enhance affinity” (Eur J Med Chem, 2018).

By solubility is commonly meant the dissolved amount per volume that the medium holds. A high value points to a readily soluble substance.

Data set [1] is described as follows: Protein binding in human plasma at 10 uM after 4 hrs.
Data set [2] is described as follows: Half life in human liver microsomes at 0.1 uM.
For data set [3] the following is noted: human, microsomes, 0.1 µM.
A further data set in a line: physchem. As to conditions: buffer, pH 7.4.

In brackets after ≈: the same amount, converted by molar mass.

`O=C(CN1CCCCC1)Nc1ccc2oc(-c3ccco3)nc2c1` showed a PPB in data set [1] of 83%. The same compound returned a t1/2 in data set [2] of 11 min. In data set [3], this compound registered a CLH of 630 µL/min/mg. Besides, the concentration in solution in the data set “physchem” (solubility at 24 h) was 184 µM (≈ 59.9 µg/mL).
